Structures can show the parent of a compound that is named as a salt. The list shows a part of the results. Hit calls seldom repeat between salt and free forms of one compound.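 In K562 cells expressing nanoluciferase-fused kinases, luminescence was recorded at 4 h intervals between 2 and 18 h, normalized as percent of control with DMSO at 100% and a positive control at 0%. A significant (2 sigma) signal drop marks a time point as decreased. The authors' rule for a hit is not shown and takes in more than the number of time points.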
What was measured:
Test in all cases: number of time points (of 5) at which kinase-Nluc abundance scored as decreased, DMSO-normalised (count); higher = more persistent destabilization
Details in all cases: K562; 2-18 h
[1] = target: FLT3 (UniProt P36888)
[2] = target: FYN (UniProt P06241)
[3] = target: GSK3A (UniProt P49840)
[4] = target: HER2 (UniProt P04626)
[5] = target: INSRR (UniProt P14616)
[6] = target: IRAK3 (UniProt Q9Y616)
[7] = target: JAK1 (UniProt P23458)
[8] = target: LCK (UniProt P06239)
[9] = target: LIMK1 (UniProt P53667)
[10] = target: LIMK2 (UniProt P53671)
[11] = target: LMTK2 (UniProt Q8IWU2)
[12] = target: LYN (UniProt P07948)
[13] = target: MAP2K1 (UniProt Q02750)
[14] = target: MAP2K2 (UniProt P36507)
[15] = target: MAP4K2 (UniProt Q12851)
[16] = target: MAPK1 (UniProt P28482)
[17] = target: MAPK4 (UniProt P31152)
[18] = target: MAPKAPK2 (UniProt P49137)
[19] = target: MKNK1 (UniProt Q9BUB5)
[20] = target: NTRK2 (UniProt Q16620)

Chains of the proteins cited; added tags and fusions are not shown. Lines headed by an entry give the natural chain unless they say otherwise; changes in a name come on top.
UniProt P49840: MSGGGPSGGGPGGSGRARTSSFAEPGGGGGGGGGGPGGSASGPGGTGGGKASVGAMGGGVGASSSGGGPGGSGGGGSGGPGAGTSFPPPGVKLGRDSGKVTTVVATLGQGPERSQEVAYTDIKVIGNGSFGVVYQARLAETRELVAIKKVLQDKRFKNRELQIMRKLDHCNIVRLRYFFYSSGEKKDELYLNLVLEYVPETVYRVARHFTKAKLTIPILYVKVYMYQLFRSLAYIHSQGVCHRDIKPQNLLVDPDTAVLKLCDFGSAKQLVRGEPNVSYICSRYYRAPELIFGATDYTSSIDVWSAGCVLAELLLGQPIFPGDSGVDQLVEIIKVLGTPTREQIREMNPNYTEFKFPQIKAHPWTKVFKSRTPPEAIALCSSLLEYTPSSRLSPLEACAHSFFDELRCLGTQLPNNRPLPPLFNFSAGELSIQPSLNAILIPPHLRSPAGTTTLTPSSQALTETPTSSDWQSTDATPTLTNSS
UniProt Q9Y616: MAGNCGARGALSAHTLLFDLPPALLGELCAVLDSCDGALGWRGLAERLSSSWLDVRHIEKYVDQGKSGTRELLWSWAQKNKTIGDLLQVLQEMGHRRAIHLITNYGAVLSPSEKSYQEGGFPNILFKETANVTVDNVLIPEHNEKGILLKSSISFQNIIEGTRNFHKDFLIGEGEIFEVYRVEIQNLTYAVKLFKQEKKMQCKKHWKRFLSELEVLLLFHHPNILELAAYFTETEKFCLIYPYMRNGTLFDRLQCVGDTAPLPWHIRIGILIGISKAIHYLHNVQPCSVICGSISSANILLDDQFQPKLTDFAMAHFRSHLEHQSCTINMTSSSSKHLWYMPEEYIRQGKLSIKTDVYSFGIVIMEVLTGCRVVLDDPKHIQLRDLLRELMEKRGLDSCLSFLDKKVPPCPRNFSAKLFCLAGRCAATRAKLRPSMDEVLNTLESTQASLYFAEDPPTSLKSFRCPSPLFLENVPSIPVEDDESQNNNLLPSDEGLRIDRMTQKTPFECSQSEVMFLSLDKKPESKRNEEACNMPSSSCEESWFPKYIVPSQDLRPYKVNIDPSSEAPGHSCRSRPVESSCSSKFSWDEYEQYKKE
UniProt P23458: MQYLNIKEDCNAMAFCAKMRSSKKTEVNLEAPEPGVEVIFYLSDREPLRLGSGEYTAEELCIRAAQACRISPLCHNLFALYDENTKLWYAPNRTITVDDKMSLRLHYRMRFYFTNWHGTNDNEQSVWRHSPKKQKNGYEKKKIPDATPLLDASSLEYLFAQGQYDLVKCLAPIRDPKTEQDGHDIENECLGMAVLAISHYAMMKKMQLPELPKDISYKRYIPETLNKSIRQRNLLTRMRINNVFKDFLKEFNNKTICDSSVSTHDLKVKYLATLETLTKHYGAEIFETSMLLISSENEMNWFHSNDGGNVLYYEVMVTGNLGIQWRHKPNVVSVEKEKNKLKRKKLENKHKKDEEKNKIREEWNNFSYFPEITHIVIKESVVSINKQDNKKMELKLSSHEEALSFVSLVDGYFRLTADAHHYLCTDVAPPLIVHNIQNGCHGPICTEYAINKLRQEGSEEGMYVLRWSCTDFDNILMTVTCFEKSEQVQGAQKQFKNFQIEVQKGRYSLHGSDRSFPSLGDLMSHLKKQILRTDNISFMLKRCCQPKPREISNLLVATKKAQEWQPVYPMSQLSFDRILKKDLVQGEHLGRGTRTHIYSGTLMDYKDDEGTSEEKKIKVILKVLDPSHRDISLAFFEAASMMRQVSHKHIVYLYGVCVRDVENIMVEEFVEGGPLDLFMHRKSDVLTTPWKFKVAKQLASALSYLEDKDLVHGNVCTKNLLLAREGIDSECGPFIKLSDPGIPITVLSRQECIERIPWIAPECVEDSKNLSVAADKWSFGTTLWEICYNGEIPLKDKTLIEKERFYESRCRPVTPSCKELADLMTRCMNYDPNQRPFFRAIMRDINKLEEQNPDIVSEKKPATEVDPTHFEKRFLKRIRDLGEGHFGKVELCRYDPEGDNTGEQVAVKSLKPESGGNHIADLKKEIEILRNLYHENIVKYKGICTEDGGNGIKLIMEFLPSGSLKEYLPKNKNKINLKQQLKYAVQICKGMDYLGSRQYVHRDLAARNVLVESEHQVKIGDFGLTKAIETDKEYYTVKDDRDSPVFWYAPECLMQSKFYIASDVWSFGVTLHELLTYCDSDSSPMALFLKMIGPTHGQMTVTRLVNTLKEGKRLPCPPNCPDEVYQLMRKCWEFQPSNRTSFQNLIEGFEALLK
UniProt P06239: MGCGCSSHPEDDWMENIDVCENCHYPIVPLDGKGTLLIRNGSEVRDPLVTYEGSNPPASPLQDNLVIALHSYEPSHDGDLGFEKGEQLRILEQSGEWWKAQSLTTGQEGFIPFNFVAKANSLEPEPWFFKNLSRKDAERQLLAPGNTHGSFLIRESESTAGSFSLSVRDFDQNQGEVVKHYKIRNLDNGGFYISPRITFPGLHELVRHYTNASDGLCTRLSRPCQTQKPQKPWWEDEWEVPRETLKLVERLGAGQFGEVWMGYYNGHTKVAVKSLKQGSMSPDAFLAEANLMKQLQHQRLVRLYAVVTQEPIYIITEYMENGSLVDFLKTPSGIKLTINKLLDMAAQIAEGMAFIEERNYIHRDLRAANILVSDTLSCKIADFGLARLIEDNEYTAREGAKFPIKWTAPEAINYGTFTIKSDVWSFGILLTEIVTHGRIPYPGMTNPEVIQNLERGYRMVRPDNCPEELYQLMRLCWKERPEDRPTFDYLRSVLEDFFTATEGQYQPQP
UniProt P53667: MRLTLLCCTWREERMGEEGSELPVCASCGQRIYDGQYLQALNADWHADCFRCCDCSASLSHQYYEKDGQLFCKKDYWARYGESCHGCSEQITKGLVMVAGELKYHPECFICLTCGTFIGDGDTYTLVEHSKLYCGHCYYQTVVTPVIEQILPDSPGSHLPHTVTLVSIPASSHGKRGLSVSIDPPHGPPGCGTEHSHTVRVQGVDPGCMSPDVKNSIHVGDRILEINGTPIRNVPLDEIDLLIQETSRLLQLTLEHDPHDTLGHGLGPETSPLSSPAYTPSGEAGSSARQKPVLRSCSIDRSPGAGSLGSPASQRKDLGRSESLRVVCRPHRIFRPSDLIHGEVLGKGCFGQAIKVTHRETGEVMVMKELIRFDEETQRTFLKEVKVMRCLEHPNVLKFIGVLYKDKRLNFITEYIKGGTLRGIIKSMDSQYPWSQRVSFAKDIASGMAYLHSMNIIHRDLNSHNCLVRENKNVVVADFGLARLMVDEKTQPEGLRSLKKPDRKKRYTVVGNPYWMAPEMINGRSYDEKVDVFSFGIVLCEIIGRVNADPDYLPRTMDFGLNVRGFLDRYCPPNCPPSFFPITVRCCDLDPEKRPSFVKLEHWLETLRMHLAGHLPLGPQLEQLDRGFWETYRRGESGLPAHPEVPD
UniProt Q8IWU2: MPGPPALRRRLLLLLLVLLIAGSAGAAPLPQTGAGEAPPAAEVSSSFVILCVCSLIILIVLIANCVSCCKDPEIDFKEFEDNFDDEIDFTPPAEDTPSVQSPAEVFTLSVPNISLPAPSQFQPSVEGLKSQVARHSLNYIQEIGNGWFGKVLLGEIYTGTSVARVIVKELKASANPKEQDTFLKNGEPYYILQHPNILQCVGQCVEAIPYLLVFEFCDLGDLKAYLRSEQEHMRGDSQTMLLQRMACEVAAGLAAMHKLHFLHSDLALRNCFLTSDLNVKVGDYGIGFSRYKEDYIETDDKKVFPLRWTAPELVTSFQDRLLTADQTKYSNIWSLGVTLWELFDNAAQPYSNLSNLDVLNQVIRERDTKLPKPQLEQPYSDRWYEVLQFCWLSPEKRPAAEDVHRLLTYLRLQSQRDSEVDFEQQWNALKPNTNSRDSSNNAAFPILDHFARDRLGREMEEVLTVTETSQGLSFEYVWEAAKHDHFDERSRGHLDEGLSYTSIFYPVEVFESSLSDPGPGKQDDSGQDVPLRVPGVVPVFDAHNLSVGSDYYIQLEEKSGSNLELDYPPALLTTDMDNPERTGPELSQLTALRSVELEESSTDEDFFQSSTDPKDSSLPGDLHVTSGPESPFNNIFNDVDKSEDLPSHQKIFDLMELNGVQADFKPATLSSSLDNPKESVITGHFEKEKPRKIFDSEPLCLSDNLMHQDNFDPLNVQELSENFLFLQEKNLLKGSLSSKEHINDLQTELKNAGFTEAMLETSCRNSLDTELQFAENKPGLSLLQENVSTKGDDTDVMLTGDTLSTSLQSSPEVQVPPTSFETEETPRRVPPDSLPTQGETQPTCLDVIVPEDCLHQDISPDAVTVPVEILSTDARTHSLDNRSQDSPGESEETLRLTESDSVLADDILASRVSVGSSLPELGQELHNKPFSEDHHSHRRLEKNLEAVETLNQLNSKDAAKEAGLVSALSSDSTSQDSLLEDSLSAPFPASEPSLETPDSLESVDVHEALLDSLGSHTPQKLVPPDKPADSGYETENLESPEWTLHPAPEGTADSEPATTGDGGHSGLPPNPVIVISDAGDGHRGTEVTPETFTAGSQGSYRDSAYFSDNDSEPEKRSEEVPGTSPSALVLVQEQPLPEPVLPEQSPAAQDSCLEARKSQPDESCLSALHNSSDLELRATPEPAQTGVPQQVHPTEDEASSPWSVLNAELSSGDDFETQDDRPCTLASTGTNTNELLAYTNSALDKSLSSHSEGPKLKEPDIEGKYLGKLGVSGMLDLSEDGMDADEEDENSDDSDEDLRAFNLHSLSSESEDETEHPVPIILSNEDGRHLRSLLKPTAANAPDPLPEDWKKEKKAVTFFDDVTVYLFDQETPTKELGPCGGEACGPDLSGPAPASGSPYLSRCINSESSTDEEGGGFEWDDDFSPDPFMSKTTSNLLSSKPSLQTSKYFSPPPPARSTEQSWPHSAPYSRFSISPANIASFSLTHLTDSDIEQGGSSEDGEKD
UniProt P07948: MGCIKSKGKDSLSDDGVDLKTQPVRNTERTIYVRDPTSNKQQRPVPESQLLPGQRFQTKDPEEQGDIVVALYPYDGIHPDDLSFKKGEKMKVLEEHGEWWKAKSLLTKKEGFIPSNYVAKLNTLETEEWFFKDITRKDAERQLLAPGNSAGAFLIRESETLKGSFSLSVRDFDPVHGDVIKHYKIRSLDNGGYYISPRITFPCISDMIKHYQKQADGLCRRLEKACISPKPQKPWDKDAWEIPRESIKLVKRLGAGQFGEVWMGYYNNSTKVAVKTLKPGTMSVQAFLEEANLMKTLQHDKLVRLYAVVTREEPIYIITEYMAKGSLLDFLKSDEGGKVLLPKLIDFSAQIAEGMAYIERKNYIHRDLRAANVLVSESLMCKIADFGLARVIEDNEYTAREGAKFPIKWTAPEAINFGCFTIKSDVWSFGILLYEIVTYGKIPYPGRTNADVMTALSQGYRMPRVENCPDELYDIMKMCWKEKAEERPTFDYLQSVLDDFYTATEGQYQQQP
UniProt Q12851: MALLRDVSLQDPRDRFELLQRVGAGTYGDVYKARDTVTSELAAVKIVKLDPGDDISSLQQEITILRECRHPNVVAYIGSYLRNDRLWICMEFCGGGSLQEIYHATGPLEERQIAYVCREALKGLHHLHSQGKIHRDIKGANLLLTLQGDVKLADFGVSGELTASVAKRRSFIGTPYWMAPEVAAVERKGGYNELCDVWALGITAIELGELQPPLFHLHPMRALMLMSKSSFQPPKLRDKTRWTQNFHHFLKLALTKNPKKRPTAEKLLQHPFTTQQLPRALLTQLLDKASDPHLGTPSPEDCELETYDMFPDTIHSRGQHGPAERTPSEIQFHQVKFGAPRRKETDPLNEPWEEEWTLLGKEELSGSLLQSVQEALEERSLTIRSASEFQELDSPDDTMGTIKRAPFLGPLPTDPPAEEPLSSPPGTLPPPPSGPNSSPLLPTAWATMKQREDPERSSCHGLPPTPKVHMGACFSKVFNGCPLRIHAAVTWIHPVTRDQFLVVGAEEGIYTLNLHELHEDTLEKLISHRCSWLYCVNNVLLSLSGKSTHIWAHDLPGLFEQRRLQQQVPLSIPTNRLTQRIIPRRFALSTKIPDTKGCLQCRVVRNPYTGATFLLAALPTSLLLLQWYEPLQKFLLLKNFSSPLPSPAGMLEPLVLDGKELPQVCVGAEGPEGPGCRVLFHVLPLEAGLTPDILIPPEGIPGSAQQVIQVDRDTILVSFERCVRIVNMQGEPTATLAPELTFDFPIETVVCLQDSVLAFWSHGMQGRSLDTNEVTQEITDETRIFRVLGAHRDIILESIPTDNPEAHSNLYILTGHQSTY
UniProt P28482, whole entry: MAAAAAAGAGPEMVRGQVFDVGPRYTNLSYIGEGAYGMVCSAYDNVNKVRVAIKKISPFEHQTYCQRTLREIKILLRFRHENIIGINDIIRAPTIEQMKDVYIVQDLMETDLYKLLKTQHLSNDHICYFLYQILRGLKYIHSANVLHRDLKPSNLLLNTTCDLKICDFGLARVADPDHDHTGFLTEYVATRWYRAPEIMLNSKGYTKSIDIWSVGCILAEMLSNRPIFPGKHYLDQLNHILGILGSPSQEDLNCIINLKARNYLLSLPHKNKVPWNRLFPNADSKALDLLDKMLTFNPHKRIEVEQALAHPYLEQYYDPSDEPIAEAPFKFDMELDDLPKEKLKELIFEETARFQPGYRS

| Compound | number of time points [1] | number of time points [2] | number of time points [3] | number of time points [4] | number of time points [5] | number of time points [6] | number of time points [7] | number of time points [8] | number of time points [9] | number of time points [10] | number of time points [11] | number of time points [12] | number of time points [13] | number of time points [14] | number of time points [15] | number of time points [16] | number of time points [17] | number of time points [18] | number of time points [19] | number of time points [20] |
| --- | --- | --- | --- | --- | --- | --- | --- | --- | --- | --- | --- | --- | --- | --- | --- | --- | --- | --- | --- | --- |
| CC(C)(C)S(=O)(=O)c1ccc2nccc(Nc3n[nH]c4ccc(F)cc34)c2c1 (10 µM) | 0 | 0 | 0 | 0 | 0 | 0 | 0 | 0 | 0 | 0 | 0 | 0 | 0 | 0 | 0 | 0 | 0 | 0 | 0 | 0 |
| COc1ccc2c(c1)C[C@H](C(=O)Nc1ccc(-c3cn[nH]c3)cc1OCCN(C)C)CO2 [Chroman 1] (10 µM) | 0 | 0 | 0 | 0 | 0 | 0 | 0 | 0 | 0 | 0 | 0 | 0 | 0 | 0 | 0 | 0 | 0 | 0 | 0 | 0 |
| Cn1cc(-c2ccc3ncc(Cc4ccc5ncccc5c4)n3n2)cn1 (10 µM) | 0 | 0 | 0 | 0 | 0 | 0 | 0 | 0 | 0 | 0 | 0 | 0 | 0 | 0 | 0 | 0 | 0 | 0 | 0 | 0 |
| COc1cc(-c2cnc(N)c(-c3ccc(NC(=O)c4cn(CC5CCOCC5)cc(-c5ccc(C)cn5)c4=O)cc3F)c2)ccc1OC[C@H]1COCCO1 [DS-1205b (free base)] (10 µM) | 0 | 0 | 0 | 0 | 0 | 0 | 0 | 0 | 0 | 0 | 0 | 0 | 0 | 0 | 0 | 0 | 0 | 0 | 0 | 0 |
| CCn1c2ccccc2c2cc(Nc3ccnc(NCCCN4CCOCC4)n3)ccc21 (2.5 µM) | 0 | 0 | 0 | 0 | 0 | 0 | 0 | 0 | 0 | 0 | 0 | 0 | 0 | 0 | 0 | 0 | 0 | 0 | 0 | 0 |
| CCCCNc1ncc2c(-c3ccc(CN4CCN(C)CC4)cc3)cn([C@H]3CC[C@H](O)CC3)c2n1 [UNC2025 (hydrochloride)] (2.5 µM) | 0 | 3 | 0 | 0 | 1 | 3 | 0 | 0 | 3 | 0 | 0 | 0 | 0 | 0 | 0 | 0 | 0 | 0 | 0 | 0 |
| C[C@@H]1CC[C@]2(C(=O)O)CC[C@]3(C)C(=CC[C@@H]4[C@@]5(C)CC[C@H](O)[C@@](C)(CO)[C@@H]5CC[C@]43C)[C@@H]2[C@]1(C)O [Rotundic acid] (10 µM) | 0 | 0 | 0 | 0 | 0 | 0 | 0 | 0 | 0 | 0 | 0 | 0 | 0 | 0 | 0 | 0 | 0 | 0 | 0 | 0 |
| CC(C)(O)c1cc(Nc2cc(Oc3cn(C4CC4)nc3C3CCOCC3)ccn2)ccn1 (10 µM) | 0 | 0 | 0 | 0 | 0 | 0 | 0 | 0 | 0 | 0 | 0 | 0 | 0 | 0 | 0 | 0 | 0 | 0 | 0 | 0 |
| Cn1sc(=O)n(Cc2ccccc2)c1=O (10 µM) | 0 | 0 | 0 | 0 | 0 | 0 | 0 | 0 | 0 | 0 | 0 | 0 | 0 | 0 | 0 | 0 | 0 | 0 | 0 | 0 |
| Cn1cc(-c2ccc3nnc(Sc4ccc5nn(C)cc5c4)n3n2)cn1 [c-Met inhibitor 1] (10 µM) | 0 | 0 | 0 | 0 | 0 | 0 | 0 | 0 | 0 | 0 | 0 | 0 | 0 | 0 | 0 | 0 | 0 | 0 | 0 | 0 |
| O=C(Nc1nccs1)C(c1cc(F)ccc1O)N1Cc2ccccc2C1=O (stereo not given) (10 µM) | 0 | 0 | 0 | 0 | 0 | 0 | 0 | 0 | 0 | 0 | 0 | 0 | 0 | 0 | 0 | 0 | 0 | 0 | 0 | 0 |
| CNC(=O)c1c(C)oc2cc(Oc3ncnc4cc(OC)c(OC)cc34)ccc12 [Fruquintinib] (10 µM) | 0 | 0 | 0 | 0 | 0 | 0 | 0 | 0 | 0 | 0 | 0 | 0 | 0 | 0 | 0 | 0 | 0 | 0 | 0 | 0 |
| CCN1C(C)(C)CC(Oc2ccc(C(=O)Nc3ccc(NC(=O)Nc4cc(C(C)(C)C)on4)cc3)nc2)CC1(C)C (10 µM) | 0 | 0 | 0 | 0 | 0 | 0 | 0 | 0 | 0 | 0 | 0 | 0 | 0 | 0 | 0 | 0 | 0 | 0 | 0 | 0 |
| Cc1cc(=O)[nH]c(=S)[nH]1 [Methylthiouracil] (10 µM) | 0 | 0 | 0 | 0 | 0 | 0 | 0 | 0 | 0 | 0 | 0 | 0 | 0 | 0 | 0 | 0 | 0 | 0 | 0 | 0 |
| COC[C@H]1Cn2cc(-c3nc(Nc4ccnn4C)ncc3C)nc2C(=O)N1Cc1ccc(F)c(F)c1 (10 µM) | 0 | 0 | 0 | 0 | 0 | 0 | 0 | 0 | 0 | 0 | 0 | 0 | 0 | 0 | 0 | 0 | 0 | 0 | 0 | 0 |
| CC[C@@H]1CN(C(=O)NCC(F)(F)F)C[C@@H]1c1cnc2cnc3[nH]ccc3n12 [Upadacitinib] (10 µM) | 0 | 0 | 0 | 0 | 0 | 0 | 0 | 0 | 0 | 0 | 0 | 0 | 0 | 0 | 0 | 0 | 0 | 0 | 0 | 0 |
| CC(C)c1cnn2c(NCc3ccccc3)cc(NCCCCCCN)nc12 [BS-181 (hydrochloride)] (10 µM) | 0 | 0 | 0 | 0 | 0 | 0 | 0 | 0 | 0 | 3 | 0 | 0 | 0 | 0 | 0 | 0 | 0 | 0 | 0 | 0 |
| C[C@@H](Nc1cc(F)cc(F)c1)c1cc(C(=O)N(C)C)cc2c(=O)cc(N3CCOCC3)oc12 (10 µM) | 0 | 0 | 0 | 0 | 0 | 0 | 0 | 0 | 0 | 0 | 0 | 0 | 0 | 0 | 0 | 0 | 0 | 0 | 0 | 0 |
| Cc1occ2c1C(=O)c1c(O)ccc(O)c1C2 (2.5 µM) | 0 | 0 | 0 | 0 | 0 | 0 | 0 | 0 | 0 | 0 | 0 | 0 | 0 | 0 | 0 | 0 | 0 | 0 | 0 | 0 |
| O=C1NC(=O)C(c2ccccc2[N+](=O)[O-])=C1Nc1ccc(O)c(Cl)c1 (10 µM) | 0 | 0 | 0 | 0 | 0 | 0 | 0 | 0 | 0 | 0 | 0 | 0 | 0 | 0 | 0 | 0 | 0 | 0 | 0 | 0 |
| CC(C)(C)NS(=O)(=O)c1cncc(-c2cc(F)c3nc(N)nn3c2)c1 (10 µM) | 0 | 0 | 0 | 0 | 0 | 0 | 0 | 0 | 0 | 0 | 0 | 0 | 0 | 0 | 0 | 0 | 0 | 0 | 0 | 0 |
| C=CC(=O)Nc1cccc(Oc2nc(Nc3ccc(N4CCN(C)CC4)cc3)nc3ccsc23)c1 [Olmutinib] (2.5 µM) | 0 | 0 | 0 | 0 | 0 | 0 | 0 | 0 | 0 | 0 | 0 | 0 | 0 | 0 | 0 | 0 | 0 | 0 | 0 | 0 |
| O=C(c1ccc(NS(=O)(=O)c2cccc3cccnc23)cc1)N1CCN(CC2CC2)CC1 [Mitapivat] (10 µM) | 0 | 0 | 0 | 0 | 0 | 0 | 0 | 0 | 0 | 0 | 0 | 0 | 0 | 0 | 0 | 0 | 0 | 0 | 0 | 0 |

Single records, from the list above. Order of values: number of time points [1]	number of time points [2]	number of time points [3]	number of time points [4]	number of time points [5]	number of time points [6]	number of time points [7]	number of time points [8]	number of time points [9]	number of time points [10]	number of time points [11]	number of time points [12]	number of time points [13]	number of time points [14]	number of time points [15]	number of time points [16]	number of time points [17]	number of time points [18]	number of time points [19]	number of time points [20]
CCN1C(C)(C)CC(Oc2ccc(C(=O)Nc3ccc(NC(=O)Nc4cc(C(C)(C)C)on4)cc3)nc2)CC1(C)C (10 µM) as listed: 0	0	0	0	0	0	0	0	0	0	0	0	0	0	0	0	0	0	0	0
Cc1cc(=O)[nH]c(=S)[nH]1 [Methylthiouracil] (10 µM) as listed: 0	0	0	0	0	0	0	0	0	0	0	0	0	0	0	0	0	0	0	0

Source: the supplement of paper PMC12823440, “Inhibitors supercharge kinase turnover through native proteolytic circuits” (Nature, 2025)
